According to US7563760 (GENETICS INSTITUTE, dated 2009):
No constants are given. Whether binding was seen depends on the method and setting. Some binding calls cover weakened binding; strength is not graded here. Tags and fused reporters may be left off the sequences shown.

Assays:
[1] = target: T1, chimeric protein comprising the extracellular domain of human E-selectin and the Fc portion of human IgG1 (Example 12, made in baculovirus-infected Trichoplusia ni cells) (human) (UniProt P16581); assay: affinity precipitation from 3H-glucosamine-labelled U937 membrane extracts (FIG. 26)
T1 sequence (looked up): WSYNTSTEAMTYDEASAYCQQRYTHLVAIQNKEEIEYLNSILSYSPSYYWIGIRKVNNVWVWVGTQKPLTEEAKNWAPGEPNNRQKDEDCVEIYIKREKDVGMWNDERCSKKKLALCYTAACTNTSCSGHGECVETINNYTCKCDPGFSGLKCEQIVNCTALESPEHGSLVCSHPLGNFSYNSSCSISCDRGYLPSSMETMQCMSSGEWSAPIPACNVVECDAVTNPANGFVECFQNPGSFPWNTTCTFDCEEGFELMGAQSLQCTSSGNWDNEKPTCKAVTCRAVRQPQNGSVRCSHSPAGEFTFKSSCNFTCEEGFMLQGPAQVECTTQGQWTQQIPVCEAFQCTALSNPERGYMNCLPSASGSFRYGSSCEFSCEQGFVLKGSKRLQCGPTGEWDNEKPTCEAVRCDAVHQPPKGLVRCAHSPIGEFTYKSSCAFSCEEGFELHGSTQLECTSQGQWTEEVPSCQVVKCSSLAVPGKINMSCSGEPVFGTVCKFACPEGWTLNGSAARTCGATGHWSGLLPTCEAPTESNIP

[2] = target: T1, chimeric protein comprising the extracellular domain of human E-selectin and the Fc portion of human IgG1 (Example 12, made in baculovirus-infected Trichoplusia ni cells) (human); assay: sequential affinity capture and immunoprecipitation (FIG. 27)
[3] = target: T1, chimeric protein comprising the extracellular domain of human E-selectin and the Fc portion of human IgG1 (Example 12, made in baculovirus-infected Trichoplusia ni cells) (human); assay: affinity precipitation with E-selectin chimera

Measured: binding

B1: native PSGL-1 of U937 cells (major glycoprotein captured from detergent extracts) (ligand, human, UniProt Q14242 42-412, looked up)
chain: QATEYEYLDYDFLPETEPPEMLRNSTDTTPLTGPGTPESTTVEPAARRSTGLDAGGAVTELTTELANMGNLSTDSAAMEIQTTQPAATEAQTTQPVPTEAQTTPLAATEAQTTRLTATEAQTTPLAATEAQTTPPAATEAQTTQPTGLEAQTTAPAAMEAQTTAPAAMEAQTTPPAAMEAQTTQTTAMEAQTTAPEATEAQTTQPTATEAQTTPLAAMEALSTEPSATEALSMEPTTKRGLFIPFSVSSVTHKGIPMAASNLSVNYPVGAPDHISVKQCLLAILILALVATIFFVCTVVLAVRLSRKGHMYPVRNYSPTEMVCISSLLPDGGEGPSATANGGLSKAKSPGLTPEPREDREGDDLTLHSFLP
modifications: native myeloid glycosylation, 3H-glucosamine labelled
notes: 200-220 kD non-reduced, 100-120 kD reduced; also called U937 ligand; major U937 glycoprotein
binds: all assays above
